For this experiment, the target named is holo CaV1.2 with Venus on its carboxy terminus (rabbit) (UniProt P15381). Nature of the experiment: FRET or BRET. On the technique in general: In BRET a luciferase serves as donor, and the signal depends on an acceptor being close.

Chains of the proteins cited; added tags and fusions are not shown.
UniProt P15381: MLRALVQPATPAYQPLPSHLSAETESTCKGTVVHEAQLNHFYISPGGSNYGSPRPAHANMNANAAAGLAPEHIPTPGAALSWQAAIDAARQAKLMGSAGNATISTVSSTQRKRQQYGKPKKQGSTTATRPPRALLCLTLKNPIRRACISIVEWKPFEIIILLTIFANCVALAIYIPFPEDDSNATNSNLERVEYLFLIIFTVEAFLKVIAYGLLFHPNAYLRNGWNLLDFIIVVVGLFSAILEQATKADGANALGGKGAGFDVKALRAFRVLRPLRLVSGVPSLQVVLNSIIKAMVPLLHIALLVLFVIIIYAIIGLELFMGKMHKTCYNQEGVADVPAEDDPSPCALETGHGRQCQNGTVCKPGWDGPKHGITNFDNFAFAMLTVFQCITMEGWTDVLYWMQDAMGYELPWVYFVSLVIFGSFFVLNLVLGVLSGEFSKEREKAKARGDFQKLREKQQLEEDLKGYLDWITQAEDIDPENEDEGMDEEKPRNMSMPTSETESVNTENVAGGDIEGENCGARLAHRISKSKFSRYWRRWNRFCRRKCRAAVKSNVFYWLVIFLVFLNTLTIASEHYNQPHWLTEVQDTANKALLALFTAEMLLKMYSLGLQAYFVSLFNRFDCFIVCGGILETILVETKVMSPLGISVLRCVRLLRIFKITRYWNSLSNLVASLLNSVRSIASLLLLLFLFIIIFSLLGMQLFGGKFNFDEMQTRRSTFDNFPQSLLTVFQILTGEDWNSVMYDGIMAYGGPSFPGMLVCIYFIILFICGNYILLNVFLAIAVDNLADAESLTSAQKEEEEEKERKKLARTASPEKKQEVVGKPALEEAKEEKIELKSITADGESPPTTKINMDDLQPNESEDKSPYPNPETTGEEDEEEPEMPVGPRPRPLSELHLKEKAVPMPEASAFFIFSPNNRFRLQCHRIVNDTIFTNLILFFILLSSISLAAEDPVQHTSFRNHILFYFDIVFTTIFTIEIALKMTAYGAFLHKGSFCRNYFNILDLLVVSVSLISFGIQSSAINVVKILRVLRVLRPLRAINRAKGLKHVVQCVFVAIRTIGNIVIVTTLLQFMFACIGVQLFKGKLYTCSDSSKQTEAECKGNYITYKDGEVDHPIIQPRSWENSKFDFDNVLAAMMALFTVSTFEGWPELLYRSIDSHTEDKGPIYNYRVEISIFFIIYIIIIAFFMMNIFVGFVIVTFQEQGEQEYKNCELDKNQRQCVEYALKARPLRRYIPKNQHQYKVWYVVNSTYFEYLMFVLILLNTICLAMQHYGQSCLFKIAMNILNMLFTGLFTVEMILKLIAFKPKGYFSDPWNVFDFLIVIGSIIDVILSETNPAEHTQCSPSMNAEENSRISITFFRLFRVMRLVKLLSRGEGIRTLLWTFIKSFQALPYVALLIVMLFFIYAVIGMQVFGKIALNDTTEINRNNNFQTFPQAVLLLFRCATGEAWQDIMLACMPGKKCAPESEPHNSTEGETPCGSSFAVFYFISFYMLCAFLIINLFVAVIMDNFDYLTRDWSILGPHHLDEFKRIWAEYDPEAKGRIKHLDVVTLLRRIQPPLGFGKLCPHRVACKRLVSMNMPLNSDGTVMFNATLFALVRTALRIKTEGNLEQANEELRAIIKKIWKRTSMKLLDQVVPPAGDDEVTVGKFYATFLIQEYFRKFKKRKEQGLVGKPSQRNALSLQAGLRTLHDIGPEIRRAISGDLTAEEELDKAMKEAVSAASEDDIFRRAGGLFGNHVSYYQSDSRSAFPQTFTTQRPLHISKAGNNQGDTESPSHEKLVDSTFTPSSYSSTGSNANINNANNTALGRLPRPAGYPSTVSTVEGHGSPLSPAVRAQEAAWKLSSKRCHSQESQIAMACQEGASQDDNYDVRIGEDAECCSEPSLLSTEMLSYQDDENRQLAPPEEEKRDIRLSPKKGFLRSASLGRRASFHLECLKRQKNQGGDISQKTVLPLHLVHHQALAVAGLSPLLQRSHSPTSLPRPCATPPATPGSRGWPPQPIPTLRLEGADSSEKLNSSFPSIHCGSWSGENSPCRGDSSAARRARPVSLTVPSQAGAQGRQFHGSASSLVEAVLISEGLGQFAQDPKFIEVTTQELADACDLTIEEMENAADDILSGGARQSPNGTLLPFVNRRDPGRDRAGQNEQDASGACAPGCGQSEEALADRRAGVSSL
UniProt Q5BKY1: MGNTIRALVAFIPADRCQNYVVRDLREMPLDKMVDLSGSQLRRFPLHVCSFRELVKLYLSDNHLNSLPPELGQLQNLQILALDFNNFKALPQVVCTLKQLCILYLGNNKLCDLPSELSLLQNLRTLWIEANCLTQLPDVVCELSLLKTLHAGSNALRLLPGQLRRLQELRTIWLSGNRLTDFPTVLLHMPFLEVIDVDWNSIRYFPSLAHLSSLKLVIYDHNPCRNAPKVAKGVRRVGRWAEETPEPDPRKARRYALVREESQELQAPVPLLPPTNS

These are yes or no findings as the source states them, for the method shown. Binding seen in cells or lysates may run through a third protein. Some binding calls cover weakened binding; strength is not graded here.

With “full-length human LRRC10 with C-terminal Cerulean (from UniProt Q5BKY1 1-277)”, the binding result is listed as “binds”.

These data come from doi:10.1101/2023.09.22.558856.
